# Assay results taken from the supplement of paper PMC8728848.
# This is one part of the list.
# Columns and labels:
# Assay in all cases: glycan array binding signal (z-score within array); higher = stronger binding
# Settings in all cases: glycan notation: IUPAC condensed, linker removed
# [1] = target: Gal(b1-4)GlcNAc(b1-6)Gal(b1-4)GlcNAc(b1-6)GalNAc
# Method in brief: (§1)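 Glycan array data came from 3228 arrays in the Consortium for Functional Glycomics database, and only arrays with an available protein sequence were kept. Glycan names were put into IUPAC-condensed notation, and columns mapping to the same glycan were averaged. The binding signal is a within-array Z-score, averaged across arrays of one protein sequence run at different concentrations or buffers and across linkers. A negative Z-score can be read as non-binding.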
# [2] = target: Gal(b1-4)GlcNAc(b1-6)GalNAc
# Method in brief: as §1
# [3] = target: Gal(b1-4)GlcNAc(b1-6)[Gal(b1-3)]GalNAc
# Method in brief: as §1
# Gal3S(b1-3)GalNAc = target: Gal3S(b1-3)GalNAc
# Method in brief: as §1
# Gal3S(b1-3)GlcNAc = target: Gal3S(b1-3)GlcNAc
# Method in brief: as §1
# [4] = target: Gal3S(b1-3)[Fuc(a1-4)]GlcNAc
# Method in brief: as §1
# Gal3S(b1-4)Glc = target: Gal3S(b1-4)Glc
# Method in brief: as §1
# Gal3S(b1-4)Glc6S = target: Gal3S(b1-4)Glc6S
# Method in brief: as §1
# Gal3S(b1-4)GlcNAc = target: Gal3S(b1-4)GlcNAc
# Method in brief: as §1
# Gal3S(b1-4)GlcNAc6S = target: Gal3S(b1-4)GlcNAc6S
# Method in brief: as §1
# [5] = target: Gal3S(b1-4)[Fuc(a1-3)]Glc
# Method in brief: as §1
# Gal3S6S(b1-4)GlcNAc = target: Gal3S6S(b1-4)GlcNAc
# Method in brief: as §1
# Gal3S6S(b1-4)GlcNAc6S = target: Gal3S6S(b1-4)GlcNAc6S
# Method in brief: as §1
# Gal4S(b1-4)GlcNAc = target: Gal4S(b1-4)GlcNAc
# Method in brief: as §1
# Gal4S6S(b1-4)GlcNAc = target: Gal4S6S(b1-4)GlcNAc
# Method in brief: as §1
# Gal6S(b1-4)Glc = target: Gal6S(b1-4)Glc
# Method in brief: as §1
# Gal6S(b1-4)Glc6S = target: Gal6S(b1-4)Glc6S
# Method in brief: as §1
# Gal6S(b1-4)GlcNAc = target: Gal6S(b1-4)GlcNAc
# Method in brief: as §1
# GalNAc(a1-3)Gal = target: GalNAc(a1-3)Gal
# Method in brief: as §1
# GalNAc(a1-3)GalNAc = target: GalNAc(a1-3)GalNAc
# Method in brief: as §1
# [6] = target: GalNAc(b1-3)Gal(a1-4)Gal(b1-4)GlcNAc
# Method in brief: as §1
# GalNAc(b1-3)GalNAc = target: GalNAc(b1-3)GalNAc
# Method in brief: as §1
# GalNAc(b1-4)GlcNAc = target: GalNAc(b1-4)GlcNAc
# Method in brief: as §1
# Glc(a1-4)Glc = target: Glc(a1-4)Glc
# Method in brief: as §1
# Glc(a1-6)Glc(a1-6)Glc = target: Glc(a1-6)Glc(a1-6)Glc
# Method in brief: as §1
# Glc(b1-4)Glc = target: Glc(b1-4)Glc
# Method in brief: as §1
# Glc(b1-6)Glc = target: Glc(b1-6)Glc
# Method in brief: as §1
# GlcA(b1-3)Gal = target: GlcA(b1-3)Gal
# Method in brief: as §1
# GlcA(b1-6)Gal = target: GlcA(b1-6)Gal
# Method in brief: as §1
# [7] = target: GlcNAc(a1-3)Gal(b1-4)GlcNAc
# Method in brief: as §1
# [8] = target: GlcNAc(a1-6)Gal(b1-4)GlcNAc
# Method in brief: as §1
# [9] = target: GlcNAc(b1-2)Gal(b1-3)GalNAc
# Method in brief: as §1
# [10] = target: GlcNAc(b1-2)Man(a1-3)[GlcNAc(b1-2)Man(a1-6)]Man(b1-4)GlcNAc(b1-4)GlcNAc
# Method in brief: as §1
# GlcNAc(b1-3)Gal = target: GlcNAc(b1-3)Gal
# Method in brief: as §1
# [11] = target: GlcNAc(b1-3)Gal(b1-3)GalNAc
# Method in brief: as §1
# GlcNAc(b1-3)Gal(b1-4)Glc = target: GlcNAc(b1-3)Gal(b1-4)Glc
# Method in brief: as §1
# [12] = target: GlcNAc(b1-3)Gal(b1-4)GlcNAc
# Method in brief: as §1
# [13] = target: GlcNAc(b1-3)Gal(b1-4)GlcNAc(b1-3)Gal(b1-4)GlcNAc
# Method in brief: as §1
# GlcNAc(b1-3)GalNAc = target: GlcNAc(b1-3)GalNAc
# Method in brief: as §1
# [14] = target: GlcNAc(b1-3)[GlcNAc(b1-6)]Gal(b1-4)GlcNAc
# Method in brief: as §1
# [15] = target: GlcNAc(b1-3)[GlcNAc(b1-6)]GalNAc
# Method in brief: as §1
# [16] = target: GlcNAc(b1-3)[GlcNAc(b1-6)]GlcNAc(b1-4)GlcNAc
# Method in brief: as §1
# [17] = target: GlcNAc(b1-4)Gal(b1-4)GlcNAc
# Method in brief: as §1
# [18] = target: GlcNAc(b1-4)GlcNAc(b1-4)GlcNAc
# Method in brief: as §1
# [19] = target: GlcNAc(b1-4)GlcNAc(b1-4)GlcNAc(b1-4)GlcNAc(b1-4)GlcNAc
# Method in brief: as §1
# [20] = target: GlcNAc(b1-4)GlcNAc(b1-4)GlcNAc(b1-4)GlcNAc(b1-4)GlcNAc(b1-4)GlcNAc
# Method in brief: as §1
# [21] = target: GlcNAc(b1-4)[GlcNAc(b1-6)]GalNAc
# Method in brief: as §1
# [22] = target: GlcNAc(b1-6)Gal(b1-4)GlcNAc
# Method in brief: as §1
# GlcNAc(b1-6)GalNAc = target: GlcNAc(b1-6)GalNAc
# Method in brief: as §1
# Kdn(a2-3)Gal(b1-3)GlcNAc = target: Kdn(a2-3)Gal(b1-3)GlcNAc
# Method in brief: as §1
# Kdn(a2-3)Gal(b1-4)GlcNAc = target: Kdn(a2-3)Gal(b1-4)GlcNAc
# Method in brief: as §1
# [23] = target: Man(a1-2)Man(a1-2)Man(a1-3)Man
# Method in brief: as §1
# [24] = target: Man(a1-2)Man(a1-2)Man(a1-6)[Man(a1-3)]Man
# Method in brief: as §1
# Man(a1-2)Man(a1-3)Man = target: Man(a1-2)Man(a1-3)Man
# Method in brief: as §1
# [25] = target: Man(a1-2)Man(a1-3)[Man(a1-2)Man(a1-6)]Man
# Method in brief: as §1
# [26] = target: Man(a1-2)Man(a1-3)[Man(a1-2)Man(a1-6)]Man(a1-6)[Man(a1-2)Man(a1-2)Man(a1-3)]Man(b1-4)GlcNAc(b1-4)GlcNAc
# Method in brief: as §1
# [27] = target: Man(a1-2)Man(a1-3)[Man(a1-6)]Man(a1-6)[Man(a1-2)Man(a1-3)]Man(b1-4)GlcNAc(b1-4)GlcNAc
# Method in brief: as §1
# [28] = target: Man(a1-2)Man(a1-6)[Man(a1-3)]Man(a1-6)[Man(a1-2)Man(a1-2)Man(a1-3)]Man(b1-4)GlcNAc(b1-4)GlcNAc
# Method in brief: as §1
# Man(a1-3)[Man(a1-6)]Man = target: Man(a1-3)[Man(a1-6)]Man
# Method in brief: as §1
# [29] = target: Man(a1-3)[Man(a1-6)]Man(a1-6)[Man(a1-2)Man(a1-3)]Man(b1-4)GlcNAc(b1-4)GlcNAc
# Method in brief: as §1
# [30] = target: Man(a1-3)[Man(a1-6)]Man(a1-6)[Man(a1-3)]Man(b1-4)GlcNAc(b1-4)GlcNAc
# Method in brief: as §1
binder,measurement,setting,value
"CTMLA2 (Anopheles gambiae), Q7Q7F8 (protein) MNLMITILIAVITVVRGDLSVPKTVDDILQQNPCLCPCKPFEEKEYFIPISRTSDWFGAVAYCHSVGMELAEVLNEDEARAMGEVIAEEESDSDDEFYWIGANDLGVQGTYRWALAGRPVLYSQWAAGEPNHARGENGQQPAERCVAVAMDKYEWNDFQCTQQKPFICQQFRKH",glycan array binding signal (z-score),[1],0.098
same,glycan array binding signal (z-score),[2],-0.049
same,glycan array binding signal (z-score),[3],-0.535
same,glycan array binding signal (z-score),Gal3S(b1-3)GalNAc,0.422
same,glycan array binding signal (z-score),Gal3S(b1-3)GlcNAc,1.6
same,glycan array binding signal (z-score),[4],0.17
same,glycan array binding signal (z-score),Gal3S(b1-4)Glc,-0.063
same,glycan array binding signal (z-score),Gal3S(b1-4)Glc6S,0.323
same,glycan array binding signal (z-score),Gal3S(b1-4)GlcNAc,0.224
same,glycan array binding signal (z-score),Gal3S(b1-4)GlcNAc6S,0.573
same,glycan array binding signal (z-score),[5],-0.624
same,glycan array binding signal (z-score),Gal3S6S(b1-4)GlcNAc,1.36
same,glycan array binding signal (z-score),Gal3S6S(b1-4)GlcNAc6S,0.304
same,glycan array binding signal (z-score),Gal4S(b1-4)GlcNAc,0.87
same,glycan array binding signal (z-score),Gal4S6S(b1-4)GlcNAc,0.011
same,glycan array binding signal (z-score),Gal6S(b1-4)Glc,0.404
same,glycan array binding signal (z-score),Gal6S(b1-4)Glc6S,0.458
same,glycan array binding signal (z-score),Gal6S(b1-4)GlcNAc,0.772
same,glycan array binding signal (z-score),GalNAc(a1-3)Gal,0.19
same,glycan array binding signal (z-score),GalNAc(a1-3)GalNAc,-0.298
same,glycan array binding signal (z-score),[6],-0.109
same,glycan array binding signal (z-score),GalNAc(b1-3)GalNAc,-0.135
same,glycan array binding signal (z-score),GalNAc(b1-4)GlcNAc,-0.062
same,glycan array binding signal (z-score),Glc(a1-4)Glc,-0.393
same,glycan array binding signal (z-score),Glc(a1-6)Glc(a1-6)Glc,-0.271
same,glycan array binding signal (z-score),Glc(b1-4)Glc,0.094
same,glycan array binding signal (z-score),Glc(b1-6)Glc,-0.2
same,glycan array binding signal (z-score),GlcA(b1-3)Gal,0.087
same,glycan array binding signal (z-score),GlcA(b1-6)Gal,0.777
same,glycan array binding signal (z-score),[7],-0.13
same,glycan array binding signal (z-score),[8],-0.363
same,glycan array binding signal (z-score),[9],0.567
same,glycan array binding signal (z-score),[10],-0.189
same,glycan array binding signal (z-score),GlcNAc(b1-3)Gal,-0.283
same,glycan array binding signal (z-score),[11],1.18
same,glycan array binding signal (z-score),GlcNAc(b1-3)Gal(b1-4)Glc,-0.264
same,glycan array binding signal (z-score),[12],-0.188
same,glycan array binding signal (z-score),[13],-0.389
same,glycan array binding signal (z-score),GlcNAc(b1-3)GalNAc,-0.569
same,glycan array binding signal (z-score),[14],-0.469
same,glycan array binding signal (z-score),[15],-0.515
same,glycan array binding signal (z-score),[16],0.928
same,glycan array binding signal (z-score),[17],-0.36
same,glycan array binding signal (z-score),[18],-0.218
same,glycan array binding signal (z-score),[19],-0.422
same,glycan array binding signal (z-score),[20],-0.832
same,glycan array binding signal (z-score),[21],-0.15
same,glycan array binding signal (z-score),[22],-0.257
same,glycan array binding signal (z-score),GlcNAc(b1-6)GalNAc,-0.407
same,glycan array binding signal (z-score),Kdn(a2-3)Gal(b1-3)GlcNAc,-0.664
same,glycan array binding signal (z-score),Kdn(a2-3)Gal(b1-4)GlcNAc,0.054
same,glycan array binding signal (z-score),[23],-0.237
same,glycan array binding signal (z-score),[24],-0.252
same,glycan array binding signal (z-score),Man(a1-2)Man(a1-3)Man,-0.273
same,glycan array binding signal (z-score),[25],-0.134
same,glycan array binding signal (z-score),[26],0.101
same,glycan array binding signal (z-score),[27],-0.309
same,glycan array binding signal (z-score),[28],-0.52
same,glycan array binding signal (z-score),Man(a1-3)[Man(a1-6)]Man,-0.271
same,glycan array binding signal (z-score),[29],-0.058
same,glycan array binding signal (z-score),[30],0.122

# Some of the entries above in another layout:
binder	measurement	setting	value
CTMLA2 (Anopheles gambiae), Q7Q7F8 (protein) MNLMITILIAVITVVRGDLSVPKTVDDILQQNPCLCPCKPFEEKEYFIPISRTSDWFGAVAYCHSVGMELAEVLNEDEARAMGEVIAEEESDSDDEFYWIGANDLGVQGTYRWALAGRPVLYSQWAAGEPNHARGENGQQPAERCVAVAMDKYEWNDFQCTQQKPFICQQFRKH	glycan array binding signal (z-score)	[12]	-0.188
same	glycan array binding signal (z-score)	[13]	-0.389
same	glycan array binding signal (z-score)	GlcNAc(b1-3)GalNAc	-0.569
same	glycan array binding signal (z-score)	[14]	-0.469
